Measured values as given in US5504070 (dated 1996).

Legend:
[1] = general procedure: Fmoc solid-phase peptide synthesis in flow; Fmoc-Trp-AminoTech PA500; active ester (OPfp or ODhbt esters) or BOP/HOBt; details: whole synthesis, Area %, scale 0.32 mmole
[2] = general procedure: Fmoc solid-phase peptide synthesis in flow; AminoTech PR500; active ester (OPfp or ODhbt esters) or BOP/HOBt; details: whole synthesis, Area %, scale 0.43 mmole

| Substance | final HPLC purity [1] [%] | crude HPLC purity [2] [%] |
| --- | --- | --- |
| N-Acetyl-L-α-aspartyl-L-isoleucyl-L-Isoleucyl-L-tryptophan | 97.4 | – |
| N-Acetyl-L-α-aspartyl-L-valyI-L-asparaginyl-L-threonyl-L-prolyl-L-α-glutamine | – | 95.7 |
